{
  "source": "patent US10155732B2",
  "about": "“Ribonucleotide reductase inhibitors and methods of use” (City of Hope, priority 2012, dated 2018)",
  "system": "KB cells",
  "assay": "flow cytometry and annexin staining",
  "type": "cell-based, human",
  "details": "72 hours",
  "note": "At least one structure is not confirmed: it was looked up by name or label, or the drawing left a doubt.",
  "data": [
    {"smiles": "O=C(Nc1nc(-c2ccc(O)c(O)c2)cs1)c1ccc(O)c(O)c1", "note": "[COH20]", "values": [
      {"measurement": "annexin staining, apoptosis", "value": "significant cell death"}
    ]}
  ]
}
